Out of some 360,000 compounds screened, about 780 (0.22%) were called active. The shares of active, inactive and inconclusive entries below differ from those in the screen. Rule as the data show it: active = inhibition above about 35% (passing the limit was not always enough); inconclusive = no clear call, values can overlap the other calls.
What follows are compounds tested on Botulinum neurotoxin type F light chain protease (Clostridium botulinum) (assay: BoNT/F light chain protease inhibitors, primary screen, biochemical, flow cytometry, MLPCN library (AID 588497; also: plate controls were buffer without enzyme for full effect and enzyme alone for no effect)). Settings: Multiplex microsphere protease cleavage assay, at 10 µM, stronger effect = higher value.
`COc1ccc(S(=O)(=O)NCC2CCCN(C(=O)CCC(F)(F)F)C2)cc1` (centres undefined) was tested, and the inhibition was inconclusive: -15.1%. For `CC1=Nc2ccccc2N=C(NC(=O)CN2CCN(c3ccc(F)cc3)CC2)C1c1ccccc1` (centres undefined), the inhibition was inconclusive: -16.3%. `CCCCNCc1ccc(OCc2ccc(Cl)nc2)c(OC)c1` was tested, and the inhibition was inconclusive: 22.4%. With `O=C(Cc1ccccc1)Nc1nonc1NC(=O)c1ccccc1` the inhibition was inconclusive: -24.2%. In the case of `CN(CCc1ccccc1)C(=O)c1[nH]c(C(F)(F)F)nc1-c1ccccc1`, the inhibition was inactive: -3.9%. In the case of `O=C(NC1CCN(S(=O)(=O)c2ccccc2)CC1)c1ccccc1`, the inhibition was inconclusive: 14.5%. In the case of `CCN(CC)C(=O)[C@H]1C[C@H](CC(=O)NC(C)(C)C)C(=O)N2CCc3c([nH]c4ccc(Cl)cc34)[C@]12C`, the inhibition was inactive: -6.1%. `COc1ccc(CC(=O)NC(=S)Nc2cccc(C)c2)cc1` was tested, and the inhibition was inconclusive: 0.2%. `CCOc1cc(/C=C2\NC(=O)NC2=O)ccc1OC(C)C(=O)O` (centres undefined) was tested, and the inhibition was inconclusive: 6.2%. With `C/C(=N/NC(=O)CNc1ccc(C)cc1)c1ccc(Br)s1` the inhibition was inactive: -3%. `COc1ccccc1CCNC(=O)CNC(=O)Cc1cccc2ccccc12` was tested, and the inhibition was inactive: -0.1%. For `COc1ccc(C(=O)NCc2ccccc2CN2CCCC2)cc1S(=O)(=O)Nc1ccc(C)cc1`, the inhibition was inconclusive: -36.7%. `Cc1ccc(C2CC2C(=O)NNC(=S)Nc2cccc(C)c2)cc1` (centres undefined) was tested, and the inhibition was inactive: -0.4%. With `COc1cc(NC(=O)N[C@@H](Cc2c[nH]c3ccccc23)C(=O)O)c(C(=O)O)cc1OC` the inhibition was inconclusive: 1.9%. In the case of `CCCCCCCCNC1=CC(=O)CC(C)(C)C1`, the inhibition was inconclusive: 3.3%. In the case of `Cc1ccc(CNC(=O)CSc2nc3ccccc3[nH]2)cc1`, the inhibition was inconclusive: -10.4%. With `CC(C)(C)c1ccc(C(=O)Nc2ccc(Oc3cccnc3)nc2)cc1` the inhibition was inconclusive: -50.1%. For `Cc1cccc(C)c1NC(=O)c1cnn(-c2ccccc2)c1C`, the inhibition was inconclusive: -27.7%. For `N#Cc1ccccc1OCc1nnc(-c2ccccc2Br)o1`, the inhibition was inactive: -20%. For `COc1ccc2cc(CO)n(C)c2c1`, the inhibition was inactive: -16.8%. In the case of `Cc1ccc(CNCCCSc2nc(C)cc(C)n2)cc1`, the inhibition was inconclusive: -8.2%. In the case of `COc1cccc(C(=O)Nc2ccc(C(=O)c3ccccc3)cc2)c1`, the inhibition was inconclusive: 1.8%. In the case of `CSCCC(NC(=O)c1ccc([N+](=O)[O-])cc1Cl)C(=O)OC1CCCCC1=O` (centres undefined), the inhibition was inactive: -4.4%. With `COc1cccc(OCc2ccc(Cl)cc2)c1C#N` the inhibition was inconclusive: -54.7%. In the case of `CCN(CC)c1ccc(N2C(=O)/C(=C/c3ccccn3)SC2=S)cc1`, the inhibition was inconclusive: -47.4%. `Cc1ccc(C(=O)Nc2nnc(S(=O)(=O)N3CCCCCC3)s2)cc1` was tested, and the inhibition was inactive: -9.8%. In the case of `CC(=NCc1ccco1)c1c(O)n(-c2ccccc2C)c(=O)[nH]c1=O`, the inhibition was inconclusive: 21.4%. With `COC(=O)c1ccc(NS(=O)(=O)c2ccc3c(c2)n(C)c(=O)n3C)cc1` the inhibition was inconclusive: 11.8%. In the case of `COc1ccc(S(=O)(=O)CCC(=O)N2CCN(c3ccc(C(C)=O)cc3)CC2)cc1`, the inhibition was inactive: 8.2%. `COc1nccc(NCc2ccccc2)c1C#N` was tested, and the inhibition was inconclusive: 34.4%. For `C=CCn1c(SCC(=O)N(CC)C2CCS(=O)(=O)C2)nc2scc(-c3ccccc3)c2c1=O` (centres undefined), the inhibition was inactive: 6%. `COc1cccc(/C=N/NC(=O)c2nnn(-c3nonc3N)c2CN(C)c2ccccc2)c1` was tested, and the inhibition was inactive: -0.9%. For `COc1ccc(OC)c(NC(=O)CSc2nnc(NC(=O)c3ccco3)s2)c1`, the inhibition was inactive: -14.4%. With `Cn1ccsc1=NC(=O)c1ccccc1OC(F)F` the inhibition was inactive: 3.8%. `Cc1nc(Cc2nnc(SCC(=O)N3c4ccccc4NC(=O)C3(C)C)o2)cs1` was tested, and the inhibition was inactive: 1.2%. With `CCCNC(=S)N1CCC(C(=O)c2ccc(F)cc2)CC1` the inhibition was inconclusive: 8.8%. In the case of `CC(=O)N1CCN(c2ccccc2NC(=O)c2cc(Br)ccc2Cl)CC1`, the inhibition was inconclusive: -9.8%. With `CC(=O)Nc1ccc(Br)c(Cl)c1` the inhibition was inconclusive: 17.5%. In the case of `CCN(C(=O)COC(=O)c1[nH]c(=O)[nH]c(=O)c1N)c1ccccc1`, the inhibition was inactive: -9.2%. For `O=C(Nc1cccc(C(=O)O)c1)/C(=C\C=C\c1ccccc1)NC(=O)c1ccccc1`, the inhibition was inactive: -0.8%. In the case of `CC(=O)Nc1cc(-c2ccccc2F)cn2c(-c3cccc(C(F)(F)F)c3)cnc12`, the inhibition was inactive: 1.3%. In the case of `COC(=O)CCCCC1SCC2NC(=O)NC21O` (centres undefined), the inhibition was active: 79.1%. With `CC1(C)SC(C)(C)N(C=O)C1C(=O)O` (centres undefined) the inhibition was inactive: 1.1%. `COc1ccc2c(c1)c(C(=O)CN1CCC(C(N)=O)CC1)c(C)n2C` was tested, and the inhibition was inconclusive: 26.6%. For `CCOC(=O)C1=CCN(S(=O)(=O)c2ccc(C)cc2)C1c1cccc2ccccc12` (centres undefined), the inhibition was inactive: 2.3%. For `CCOC(=O)C(=CNc1cc(Cl)c(-c2ccco2)c(Cl)c1)C(=O)OCC`, the inhibition was inconclusive: 9.8%. For `CC(=O)c1csc(CS(=O)(=O)c2ccccn2)n1`, the inhibition was inconclusive: 53.7%. For `CCCCNC(=O)N1CCN(C(=O)C2CCCO2)CC1` (centres undefined), the inhibition was inactive: 2.8%. For `O=C(NCCc1c[nH]c2ccccc12)c1ccccc1`, the inhibition was inconclusive: 13.7%. With `CC(C)(C)n1cnnc1Sc1ncccc1[N+](=O)[O-]` the inhibition was inactive: -2.6%. For `COc1ccccc1-c1nc(COc2ccc(Cl)cc2Cl)no1`, the inhibition was inconclusive: -4.2%. With `O=C(N/N=C/c1ccccc1C(=O)O)c1ccncc1` the inhibition was inconclusive: -9.7%. With `O=S(=O)(c1ccccc1F)N1CCc2ccccc2C1` the inhibition was inconclusive: 10.8%. With `CC1(C)NC(=O)N(CCCOc2ccc(Br)cc2Cl)C1=O` the inhibition was inactive: -1.9%. In the case of `CCOC(CC(=O)NNC(=O)c1c(-c2ccccc2Cl)noc1C)OCC`, the inhibition was inconclusive: 29.4%. With `Cc1ccc(Oc2nc3c(C)cccn3c(=O)c2/C=C(\C#N)C(N)=O)cc1` the inhibition was inconclusive: 37.7%. In the case of `Cn1cccc1Cc1nnc(SCC(=O)NCC2CCCO2)n1CCc1ccccc1` (centres undefined), the inhibition was inactive: 1.8%. With `CCCCSc1nnc(CCNC(=O)OC(C)(C)C)o1` the inhibition was inconclusive: 64.6%. For `CC1(CCc2ccccc2)NC(=O)N(CC(=O)Nc2c(F)cccc2F)C1=O` (centres undefined), the inhibition was inconclusive: 0.3%.
